Results from the supplement of paper PMC9433722.
Counter-ions that a name gives are not always drawn. This is one part of the list. Most values come without repeats; read them as rough.

Test system: Saos-2
Assay: cell viability (CCK-8) relative to DMSO control (% of control); higher = less cytotoxic
Conditions: 10 µM; 48 h

| Compound | cell viability |
| --- | --- |
| C#CCN[C@@H]1CCc2ccccc21 [Rasagiline Mesylate] | 108 |
| NC(=O)N1c2ccccc2CC(=O)c2ccccc21 [Oxcarbazepine] | 66.9 |
| CCN(CC)CCOc1ccc(C(=C(Cl)c2ccccc2)c2ccccc2)cc1 [Clomiphene Citrate] | 58.5 |
| NS(=O)(=O)c1cc(C(=O)O)c(NCc2ccco2)cc1Cl [Furosemide] | 66.1 |
| C[C@H]1C[C@H]2[C@@H]3CCC4=CC(=O)C=C[C@]4(C)[C@@]3(F)[C@@H](O)C[C@]2(C)[C@@]1(O)C(=O)CO [Betamethasone] | 73.4 |

Test system: U2OS
Assay: as above
Conditions: 10 µM; 48 h

| Compound | cell viability |
| --- | --- |
| Cc1ccccc1N1C(=O)c2cc(S(N)(=O)=O)c(Cl)cc2NC1C (stereo not drawn) [Metolazone] | 100 |
| CC1COc2c(N3CCN(C)CC3)c(F)cc3c(=O)c(C(=O)O)cn1c23 (stereo not drawn) [Ofloxacin] | 92.8 |
| CC(C)N1CCN(c2ccc(OCC3COC(Cn4cncn4)(c4ccc(Cl)cc4Cl)O3)cc2)CC1 (stereo not drawn) [Terconazole] | 93.1 |
| CO[C@H]1/C=C/O[C@@]2(C)Oc3c(C)c(O)c4c(O)c(c5c(nc6cc(C)ccn65)c4c3C2=O)NC(=O)/C(C)=C\C=C\[C@H](C)[C@H](O)[C@@H](C)[C@@H](O)[C@@H](C)[C@H](OC(C)=O)[C@@H]1C [Rifaximin] | 103 |
| OC(CCN1CCCCC1)(c1ccccc1)C1CCCCC1 (stereo not drawn) [Trihexyphenidyl·HCl] | 86 |
| CN(C)[C@@H]1C(O)=C(C(N)=O)C(=O)[C@@]2(O)C(O)=C3C(=O)c4c(O)cccc4[C@@](C)(O)[C@H]3[C@H](O)[C@@H]12 [Oxytetracycline·HCl] | 103 |
| O=C(N[C@H](CO)[C@H](O)c1ccc([N+](=O)[O-])cc1)C(Cl)Cl [Chloramphenicol] | 110 |
| COc1c2occc2cc2ccc(=O)oc12 [Methoxsalen (Xanthotoxin)] | 93.1 |
| Nc1nc(O)c2ncn(CCC(CO)CO)c2n1 [Penciclovir] | 80.6 |
| C#Cc1cccc(Nc2ncnc3cc(OCCOC)c(OCCOC)cc23)c1 [Erlotinib HCl] | 86.6 |
| CC(=O)N1CCN(c2ccc(OCC3COC(Cn4ccnc4)(c4ccc(Cl)cc4Cl)O3)cc2)CC1 (stereo not drawn) [Ketoconazole] | 122 |
| Cc1cnc(NC(=O)C2=C(O)c3ccccc3S(=O)(=O)N2C)s1 [Meloxicam] | 107 |
| OC(CCN1CCCCC1)(c1ccccc1)C1CC2C=CC1C2 (stereo not drawn) [Biperiden·HCl] | 110 |
| CCN[C@H]1C[C@H](C)S(=O)(=O)c2sc(S(N)(=O)=O)cc21 [Dorzolamide·HCl] | 110 |
| CCCNC(=O)NS(=O)(=O)c1ccc(Cl)cc1 [Chlorpropamide] | 86.1 |
| C[C@H](CCC(=O)O)[C@H]1CC[C@H]2[C@@H]3[C@@H](O)C[C@@H]4C[C@H](O)CC[C@]4(C)[C@H]3CC[C@]12C [Ursodiol] | 79.3 |
| NCCc1ccc(O)c(O)c1 [Dopamine·HCl] | 112 |
| O=C1CC2(CCCC2)CC(=O)N1CCCCN1CCN(c2ncccn2)CC1 [Buspirone·HCl] | 105 |
| Nc1cccc2c1CN(C1CCC(=O)NC1=O)C2=O (stereo not drawn) [Lenalidomide] | 84.2 |

| Compound | cell viability |
| --- | --- |
| CN(C)CCCN1c2ccccc2Sc2ccc(Cl)cc21 [Chlorpromazine . Hydrochloride] | 72.7 |
| CCN(CC)CCNC(=O)c1cc(Cl)c(N)cc1OC [Metoclopramide·HCl] | 108 |
| CO[C@@]12[C@H](COC(N)=O)C3=C(C(=O)C(C)=C(N)C3=O)N1C[C@@H]1N[C@@H]12 [Mitomycin C] | 114 |
| COc1ccccc1OCCNCC(O)COc1cccc2[nH]c3ccccc3c12 (stereo not drawn) [Carvedilol] | 114 |
| CC[C@@]1(O)C(=O)OCc2c1cc1n(c2=O)Cc2cc3c(CN(C)C)c(O)ccc3nc2-1 [Topotecan . hydrochloride] | 47.4 |
| C[n+]1ccccc1/C=N/O [Pralidoxime Chloride] | 83.3 |
| COC(=O)[C@H]1[C@H]2C[C@@H]3c4[nH]c5cc(OC)ccc5c4CCN3C[C@H]2C[C@@H](OC(=O)c2cc(OC)c(OC)c(OC)c2)[C@@H]1OC [Reserpine] | 84.8 |
| CN(Cc1cnc2nc(N)nc(N)c2n1)c1ccc(C(=O)N[C@@H](CCC(=O)O)C(=O)O)cc1 [Methotrexate] | 79.9 |
| CC#C[C@]1(O)CC[C@H]2[C@@H]3CCC4=CC(=O)CCC4=C3[C@@H](c3ccc(N(C)C)cc3)C[C@@]21C [Mifepristone] | 102 |
| CC(C)n1c(/C=C/C(O)CC(O)CC(=O)O)c(-c2ccc(F)cc2)c2ccccc21 (stereo not drawn) [Fluvastatin . sodium salt] | 101 |
| C[N+](C)(C)CCOC(N)=O [Carbamoylcholine chloride] | 106 |
| C[N+](C)(C)CC(=O)O [Betaine] | 108 |
| CCn1cc(C(=O)O)c(=O)c2cc(F)c(N3CCNCC3)cc21 [Norfloxacin] | 79.2 |
| CC(C)OC(=O)CCC/C=C\C[C@@H]1[C@@H](/C=C/[C@@H](O)COc2cccc(C(F)(F)F)c2)[C@H](O)C[C@@H]1O [Travoprost] | 84.7 |
| C#CCN[C@@H]1CCc2ccccc21 [Rasagiline Mesylate] | 95.6 |
| NC(=O)N1c2ccccc2CC(=O)c2ccccc21 [Oxcarbazepine] | 94.6 |
| CCN(CC)CCOc1ccc(C(=C(Cl)c2ccccc2)c2ccccc2)cc1 [Clomiphene Citrate] | 83.6 |
| NS(=O)(=O)c1cc(C(=O)O)c(NCc2ccco2)cc1Cl [Furosemide] | 106 |
| C[C@H]1C[C@H]2[C@@H]3CCC4=CC(=O)C=C[C@]4(C)[C@@]3(F)[C@@H](O)C[C@]2(C)[C@@]1(O)C(=O)CO [Betamethasone] | 105 |
